Data from PubChem BioAssay AID2685 (National Center for Advancing Translational Sciences (NCATS), 2010).
About 2,100 (0.66%) of roughly 320,000 compounds were called active. This list was built around the results that the source calls inconclusive (neither active nor inactive); the mix of calls is not that of the screen. The call rests on the fitted dose curve; in most records, active means well fitted inhibition curve with a large enough effect in the signal ratio, with a control signal flat (not every such curve was filed as active); inconclusive means small, poorly fitted or top-dose-only effect, or effect the other way, or a change in a side signal; inactive means flat fitted curve, though single readings scatter; the % refers to the signal ratio. Potencies of inconclusive entries are doubtful fits and often do not repeat.

Assay: qHTS Assay for Lipid Storage Modulators in Drosophila S3 Cells
Conditions: BODIPY lipid droplet fluorescence, 18-24 h, cells fed with added oleic acid; lipid storage change, negative = inhibition: at 46.1 µM (top of the series) unless noted
In short: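 Drosophila S3 cells got compounds at several concentrations plus oleic acid (400 uM solution). Laser-scanning cytometry with 488 nm excitation read lipid droplets at 500-530 nm and cells at 575-640 nm. Percent activity was relative to 20 uM Triacsin C.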
On the % scale 0 is the no-effect control and ±100 the full control effect; potency means the concentration at half of the fitted maximal effect.

SMILES	lipid storage change, negative = inhibition	Potency
Cc1cc(NC(=O)c2cccc(S(=O)(=O)N3CCCC3)c2)no1	inconclusive: 20.7%	–
COc1cc(NC(=O)Cn2cnc(S(=O)(=O)N3CCCCC3)c2)cc(OC)c1OC	–	inconclusive: 29.1 µM [activator, single point]
COc1cc(C(=O)NNC(=O)C2CCCC2)cc(OC)c1OC	inconclusive: 16%	–
O=C(CSc1nnc(-c2ccncc2)o1)c1cccc([N+](=O)[O-])c1	inconclusive: 144%	–
O=C(Nc1ncnc2sc3c(c12)CCCC3)c1ccncc1	–	inconclusive: 29.1 µM [rising, single point]
Cn1c(SCC(=O)Nc2ccc(NC(=O)c3ccccc3F)cc2)nnc1-c1ccncc1	inconclusive: 58.5%	–
O=C(Nc1ccc(NC(=S)NC(=O)c2cccs2)cc1)c1ccco1	–	inconclusive: 29.1 µM [cytotoxic, single point]
O=c1[nH]cnc2c1nc(SCc1ccccc1)n2C1OC(CO)C(O)C1O (stereo not given)	inconclusive: 5.9%	–
CC1CN(C(=O)c2cc(S(=O)(=O)N3CCCC3)c(Cl)cc2Cl)CC(C)O1 (stereo not given)	inconclusive: 19.8%	–
CCC(Sc1nc(N)c(NC(=O)c2ccco2)c(=O)[nH]1)C(=O)O (stereo not given)	inconclusive: 26.3%	–
CCN(C(=O)c1cc2c(=O)[nH]c3ccc(C)cc3c2s1)c1ccc(F)cc1	inconclusive: -27.3%	–
O=C(N/N=C/c1cccc(C(F)(F)F)c1)c1ccc(O)cc1	inconclusive: -0.407%	–
COc1ccc(NC(=O)CC2C(=O)N(C)C(=S)N2Cc2ccc3c(c2)OCO3)cc1 (stereo not given)	inactive: -26.7%	–
CCCc1ccc2oc(C(=O)N3CCC(O)CC3)c(C)c2c1	inactive: -13.7%	–
O=[N+]([O-])c1cc(S(=O)(=O)C(F)(F)F)ccc1Sc1nc2ccccc2[nH]1	–	inconclusive: 29.1 µM [falling, single point]
Cc1nn(Cc2ccccc2)c(C)c1NC(=O)c1cc2nc(-c3ccco3)cc(C(F)(F)F)n2n1	–	inconclusive: 3.26 µM [activator, partial curve]
CC(NC(=O)c1ccc(CS(C)(=O)=O)cc1)c1ccc(-c2ccccc2)cc1 (stereo not given)	–	inconclusive: 4.61 µM [rising, single point]
COC(=O)c1sc(NC(=O)COc2cccnc2[N+](=O)[O-])c(C(=O)OC)c1C	–	inconclusive: 20.6 µM [falling, single point]
Cc1cc(C(C)(C)C)cc(C)c1S(=O)(=O)N1CC(=O)Nc2ccccc21	inconclusive: -12.8%	–
Cc1ccc(S(=O)(=O)NCC(=O)OCc2csc(-c3ccccc3)n2)cc1	inconclusive: 1.1%	–

Molecules listed so far that have a CF3 group (3):
SMILES	lipid storage change, negative = inhibition	Potency
O=C(N/N=C/c1cccc(C(F)(F)F)c1)c1ccc(O)cc1	inconclusive: -0.407%	–
O=[N+]([O-])c1cc(S(=O)(=O)C(F)(F)F)ccc1Sc1nc2ccccc2[nH]1	–	inconclusive: 29.1 µM [falling, single point]
Cc1nn(Cc2ccccc2)c(C)c1NC(=O)c1cc2nc(-c3ccco3)cc(C(F)(F)F)n2n1	–	inconclusive: 3.26 µM [activator, partial curve]
